# Some of the results follow.
# B1: HFR-3 (Triticum aestivum) (protein)
# chain: MKGLLLCALALAFAAVTTHAQLQSCPTRCGKQADGMECPNNLCCSKDGYCGLGVDYCSAGAGCQSGACYDNKICGAQANGTLCRNNHCCSSGGRCGYGREYCSNGCQGGPCWADLKCGHLDNGKLCPNNLCCSQYGYCGLGPEFCGTGCQNGACSTDKPCGNKANGAPCTNNYCCSQYGSCGLGKDYCGTGCQNGACN
# Experiments:
# Test in all cases: glycan array binding signal (z-score within array); higher = stronger binding
# Details in all cases: glycan notation: IUPAC condensed, linker removed
# [1] = molecular target: GlcNAc(b1-3)Gal(b1-4)GlcNAc(b1-3)GalNAc
# Procedure, shortened: (§1)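 Negative Z-scores can be read as non-binding. The Z-score is calculated within each array and then averaged across arrays of one protein sequence at different concentrations or buffers and across linkers. Arrays, 3228 in all, were curated from the Consortium for Functional Glycomics database and kept only where the protein sequence was available.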
# [2] = molecular target: GlcNAc(b1-3)Gal(b1-4)GlcNAc(b1-3)[GlcNAc(b1-3)Gal(b1-4)GlcNAc(b1-3)]GalNAc
# Procedure, shortened: as §1
# [3] = molecular target: GlcNAc(b1-3)Gal(b1-4)GlcNAc(b1-6)[Gal(b1-3)]GalNAc
# Procedure, shortened: as §1
# [4] = molecular target: GlcNAc(b1-3)Gal(b1-4)GlcNAc(b1-6)[GlcNAc(b1-3)Gal(b1-3)]GalNAc
# Procedure, shortened: as §1
# [5] = molecular target: GlcNAc(b1-3)Gal(b1-4)GlcNAc(b1-6)[GlcNAc(b1-3)]Gal(b1-4)GlcNAc
# Procedure, shortened: as §1
# GlcNAc(b1-3)GalNAc = molecular target: GlcNAc(b1-3)GalNAc
# Procedure, shortened: as §1
# GlcNAc(b1-3)Man = molecular target: GlcNAc(b1-3)Man
# Procedure, shortened: as §1
# [6] = molecular target: GlcNAc(b1-3)[GlcNAc(b1-4)][GlcNAc(b1-6)]GlcNAc
# Procedure, shortened: as §1
# [7] = molecular target: GlcNAc(b1-3)[GlcNAc(b1-6)]Gal(b1-4)GlcNAc
# Procedure, shortened: as §1
# [8] = molecular target: GlcNAc(b1-3)[GlcNAc(b1-6)]GalNAc
# Procedure, shortened: as §1
# [9] = molecular target: GlcNAc(b1-4)Gal(b1-4)GlcNAc
# Procedure, shortened: as §1
# GlcNAc(b1-4)GlcNAc = molecular target: GlcNAc(b1-4)GlcNAc
# Procedure, shortened: as §1
# [10] = molecular target: GlcNAc(b1-4)GlcNAc(b1-4)GlcNAc
# Procedure, shortened: as §1
# [11] = molecular target: GlcNAc(b1-4)GlcNAc(b1-4)GlcNAc(b1-4)GlcNAc(b1-4)GlcNAc
# Procedure, shortened: as §1
# [12] = molecular target: GlcNAc(b1-4)GlcNAc(b1-4)GlcNAc(b1-4)GlcNAc(b1-4)GlcNAc(b1-4)GlcNAc
# Procedure, shortened: as §1
# [13] = molecular target: GlcNAc(b1-4)[GlcNAc(b1-6)]GalNAc
# Procedure, shortened: as §1
# [14] = molecular target: GlcNAc(b1-6)Gal(b1-4)GlcNAc
# Procedure, shortened: as §1
# GlcNAc(b1-6)GalNAc = molecular target: GlcNAc(b1-6)GalNAc
# Procedure, shortened: as §1
# [15] = molecular target: GlcNAc6S(b1-3)Gal(b1-4)GlcNAc
# Procedure, shortened: as §1
# Kdn(a2-3)Gal(b1-3)GalNAc = molecular target: Kdn(a2-3)Gal(b1-3)GalNAc
# Procedure, shortened: as §1
# Kdn(a2-3)Gal(b1-3)GlcNAc = molecular target: Kdn(a2-3)Gal(b1-3)GlcNAc
# Procedure, shortened: as §1
# Kdn(a2-3)Gal(b1-4)Glc = molecular target: Kdn(a2-3)Gal(b1-4)Glc
# Procedure, shortened: as §1
# Kdn(a2-3)Gal(b1-4)GlcNAc = molecular target: Kdn(a2-3)Gal(b1-4)GlcNAc
# Procedure, shortened: as §1
# [16] = molecular target: Kdn(a2-3)Gal(b1-4)[Fuc(a1-3)]GlcNAc
# Procedure, shortened: as §1
# Kdn(a2-6)Gal(b1-4)GlcNAc = molecular target: Kdn(a2-6)Gal(b1-4)GlcNAc
# Procedure, shortened: as §1
# [17] = molecular target: Man(a1-2)Man(a1-2)Man(a1-3)Man
# Procedure, shortened: as §1
# [18] = molecular target: Man(a1-2)Man(a1-2)Man(a1-6)[Man(a1-3)]Man
# Procedure, shortened: as §1
# Man(a1-2)Man(a1-3)Man = molecular target: Man(a1-2)Man(a1-3)Man
# Procedure, shortened: as §1
# [19] = molecular target: Man(a1-2)Man(a1-3)[Man(a1-2)Man(a1-6)]Man
# Procedure, shortened: as §1
# [20] = molecular target: Man(a1-2)Man(a1-3)[Man(a1-2)Man(a1-6)]Man(a1-6)[Man(a1-2)Man(a1-2)Man(a1-3)]Man
# Procedure, shortened: as §1
# [21] = molecular target: Man(a1-2)Man(a1-3)[Man(a1-2)Man(a1-6)]Man(a1-6)[Man(a1-2)Man(a1-2)Man(a1-3)]Man(b1-4)GlcNAc(b1-4)GlcNAc
# Procedure, shortened: as §1
# [22] = molecular target: Man(a1-2)Man(a1-3)[Man(a1-6)]Man(a1-6)[Man(a1-2)Man(a1-3)]Man(b1-4)GlcNAc(b1-4)GlcNAc
# Procedure, shortened: as §1
# [23] = molecular target: Man(a1-2)Man(a1-6)[Man(a1-3)]Man(a1-6)[Man(a1-2)Man(a1-2)Man(a1-3)]Man
# Procedure, shortened: as §1
# [24] = molecular target: Man(a1-2)Man(a1-6)[Man(a1-3)]Man(a1-6)[Man(a1-2)Man(a1-2)Man(a1-3)]Man(b1-4)GlcNAc(b1-4)GlcNAc
# Procedure, shortened: as §1
# Man(a1-3)[Man(a1-6)]Man = molecular target: Man(a1-3)[Man(a1-6)]Man
# Procedure, shortened: as §1
# [25] = molecular target: Man(a1-3)[Man(a1-6)]Man(a1-6)[Man(a1-2)Man(a1-3)]Man(b1-4)GlcNAc(b1-4)GlcNAc
# Procedure, shortened: as §1
# [26] = molecular target: Man(a1-3)[Man(a1-6)]Man(a1-6)[Man(a1-3)]Man
# Procedure, shortened: as §1
# [27] = molecular target: Man(a1-3)[Man(a1-6)]Man(a1-6)[Man(a1-3)]Man(b1-4)GlcNAc(b1-4)GlcNAc
# Procedure, shortened: as §1
# [28] = molecular target: Man(a1-3)[Man(a1-6)]Man(b1-4)GlcNAc(b1-4)GlcNAc
# Procedure, shortened: as §1
# [29] = molecular target: Man(a1-3)[Man(a1-6)]Man(b1-4)GlcNAc(b1-4)[Fuc(a1-6)]GlcNAc
# Procedure, shortened: as §1
# Man(a1-6)Man = molecular target: Man(a1-6)Man
# Procedure, shortened: as §1
# Man(b1-4)GlcNAc = molecular target: Man(b1-4)GlcNAc
# Procedure, shortened: as §1
# MurNAc(b1-4)GlcNAc = molecular target: MurNAc(b1-4)GlcNAc
# Procedure, shortened: as §1
# Neu5Ac(a2-3)Gal = molecular target: Neu5Ac(a2-3)Gal
# Procedure, shortened: as §1
# [30] = molecular target: Neu5Ac(a2-3)Gal(b1-3)GalNAc
# Procedure, shortened: as §1
binder,measurement,setting,value
B1,glycan array binding signal (z-score),[1],-0.886
same,glycan array binding signal (z-score),[2],0.04
same,glycan array binding signal (z-score),[3],-0.109
same,glycan array binding signal (z-score),[4],-1.06
same,glycan array binding signal (z-score),[5],-1.09
same,glycan array binding signal (z-score),GlcNAc(b1-3)GalNAc,2.18
same,glycan array binding signal (z-score),GlcNAc(b1-3)Man,1.29
same,glycan array binding signal (z-score),[6],-0.564
same,glycan array binding signal (z-score),[7],0.507
same,glycan array binding signal (z-score),[8],-0.463
same,glycan array binding signal (z-score),[9],1
same,glycan array binding signal (z-score),GlcNAc(b1-4)GlcNAc,0.363
same,glycan array binding signal (z-score),[10],-0.527
same,glycan array binding signal (z-score),[11],-0.387
same,glycan array binding signal (z-score),[12],0.63
same,glycan array binding signal (z-score),[13],-0.003
same,glycan array binding signal (z-score),[14],1.51
same,glycan array binding signal (z-score),GlcNAc(b1-6)GalNAc,-0.591
same,glycan array binding signal (z-score),[15],1.06
same,glycan array binding signal (z-score),Kdn(a2-3)Gal(b1-3)GalNAc,2.75
same,glycan array binding signal (z-score),Kdn(a2-3)Gal(b1-3)GlcNAc,-1.78
same,glycan array binding signal (z-score),Kdn(a2-3)Gal(b1-4)Glc,0.83
same,glycan array binding signal (z-score),Kdn(a2-3)Gal(b1-4)GlcNAc,0.46
same,glycan array binding signal (z-score),[16],-0.099
same,glycan array binding signal (z-score),Kdn(a2-6)Gal(b1-4)GlcNAc,-1.3
same,glycan array binding signal (z-score),[17],0.279
same,glycan array binding signal (z-score),[18],1.93
same,glycan array binding signal (z-score),Man(a1-2)Man(a1-3)Man,-1.73
same,glycan array binding signal (z-score),[19],-0.898
same,glycan array binding signal (z-score),[20],-0.42
same,glycan array binding signal (z-score),[21],0.941
same,glycan array binding signal (z-score),[22],-0.991
same,glycan array binding signal (z-score),[23],0.636
same,glycan array binding signal (z-score),[24],-1.2
same,glycan array binding signal (z-score),Man(a1-3)[Man(a1-6)]Man,-0.379
same,glycan array binding signal (z-score),[25],-0.653
same,glycan array binding signal (z-score),[26],2.17
same,glycan array binding signal (z-score),[27],3.89
same,glycan array binding signal (z-score),[28],0.828
same,glycan array binding signal (z-score),[29],-0.335
same,glycan array binding signal (z-score),Man(a1-6)Man,1.66
same,glycan array binding signal (z-score),Man(b1-4)GlcNAc,0.587
same,glycan array binding signal (z-score),MurNAc(b1-4)GlcNAc,1.28
same,glycan array binding signal (z-score),Neu5Ac(a2-3)Gal,-0.367
same,glycan array binding signal (z-score),[30],-0.378

# Two entries drawn at random from those above, as already listed:
binder,measurement,setting,value
B1,glycan array binding signal (z-score),Man(a1-6)Man,1.66
same,glycan array binding signal (z-score),GlcNAc(b1-6)GalNAc,-0.591

# Reference: the supplement of paper PMC8728848
